PubChem BioAssay AID1259424, University of Nebraska Medical Center | 2018
In all, the deposit lists about 14,000 reagents; shown is a random part of them. 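Higher correlation or smaller distance means closer resemblance to KSR1 loss; control wells, including KSR1 knockdowns, recur on many plates.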 Further read-outs or replicates are left out here. Not given: the time to read-out.

Aim: 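Seek colon cancer survival genes behaving like KSR1, using a six-gene signature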 (primary screen)
Cells: human HCT116 colon cancer cells
Reagent: siRNA pool against human genes, 50 nM
Detection: 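Six signature mRNAs by branched-DNA multiplex assay, scaled to two housekeeping genes and non-targeting median, log2; matched to mean KSR1 knockdown profile by Pearson correlation and euclidean distance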
Reading the numbers: mean correlation with KSR1 profile: higher = expression change more like KSR1 knockdown

Gene | mean correlation with KSR1 profile
EFR3A (GeneID 23167) | 0
ZNF280C (GeneID 55609) | 0.601
COBLL1 (GeneID 22837) | -0.454
TXNDC9 (GeneID 10190) | 0.211
DUSP26 (GeneID 78986) | -0.504
CACNA1B (GeneID 774) | -0.513

Look-ups from above.
Value of ZNF280C (GeneID 55609) under “mean correlation with KSR1 profile”: 0.601
CACNA1B (GeneID 774), mean correlation with KSR1 profile: -0.513
Under “mean correlation with KSR1 profile”, DUSP26 (GeneID 78986) reads -0.504

More records follow.
Gene | mean correlation with KSR1 profile
NAA11 (GeneID 84779) | 0.34
GTF2E1 (GeneID 2960) | -0.574
MEGF11 (GeneID 84465) | -0.407
GOLPH3L (GeneID 55204) | 0.468
SCEL (GeneID 8796) | -0.271
SMTN (GeneID 6525) | -0.314
SURF4 (GeneID 6836) | 0.0931
CFAP44 (GeneID 55779) | -0.471
CAPNS2 (GeneID 84290) | 0.275
SCN10A (GeneID 6336) | 0.127
TRIR (GeneID 79002) | -0.112
MAPK4 (GeneID 5596) | -0.178
LZTFL1 (GeneID 54585) | -0.273
ORC2 (GeneID 4999) | 0.00075
